Measurements reported in PubChem BioAssay AID652259 (Drosophila RNAi Screening Center, 2013).
In all, the deposit lists about 22,000 reagents; below is an unselected part of those with a known target gene and a result. Over the whole deposit, 233 (1.1%) got an active call. 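Light values are raw, unnormalised plate reads; the ratio scores behind the reporter calls were not deposited.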 A number with no mark means an inactive call. Names joined by + are all predicted targets of the reagent. Not given: the amount of reagent, the time to read-out, the dose of the treatment.

Test: 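Identify new Wingless signalling regulators in fly cells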 (primary screen)
Cell system: Drosophila clone 8 imaginal disc epithelial cells
Reagents: long dsRNA against Drosophila genes
Challenge: pathway stimulated by co-transfected Wingless expression plasmid
Read-out: 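Dual luciferase reads per well after Wingless plasmid stimulation: reporter firefly light and Renilla control light; activity is firefly divided by Renilla, a ratio not deposited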
Scale: firefly reporter light: higher = more Wg reporter light, before normalisation; Renilla control light: higher = more transfected or surviving cells
Hit rule: 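Strong candidates differ from their plate mean by at least two out of four per-plate statistical tests; weak candidates meet just one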
Meaning of the calls: active = candidate regulator (raises or lowers reporter); inactive = not a candidate

no.	Target gene	amplicon	reporter change call, replicate 1	firefly reporter light, replicate 1	firefly reporter light, replicate 2	Renilla control light, replicate 1	Renilla control light, replicate 2
1	Drl-2	DRSC05393		12762		11059	
2	Drl-2	DRSC06155		5298		2160	
3	Drl-2	DRSC06858		5975		2240	
4	CG10674	DRSC09775		2101	9744	1424	4101
5	Obp85a	DRSC14362		8209		3143	
6	CG2258	DRSC18222		1830	4151	992	1193
7	nord	DRSC04210		2026	7650	571	2500
8	nord	DRSC04361		2280	7664	434	1767
9	CG17440	DRSC18126		28872		8978	
10	Pgant8	DRSC10801		4088		1961	
11	CG43347	DRSC17982		19713		8682	
12	CG43347	DRSC18446		30851		10742	
13	CG43347	DRSC22656		5.10e5	4.47e5	1.24e5	368
14	CG43347	DRSC22682		8.40e5	8.59e5	1.55e5	1.56e5
15	nvd	DRSC22139		7.16e5	7.65e5	3.04e5	3.26e5
16	Muc26B	DRSC02322		2452	6576	829	2592
17	RpL27A	DRSC00781	Wg reporter activity raised	5195	14872	582	1730
18	Cpr76Bb	DRSC11061		20512		5833	
19	Cpr76Bb	DRSC22870		6.76e5	7.32e5	2.90e5	3.79e5
20	kek1	DRSC03551		2377	10887	1094	2631
21	CG3527	DRSC18307		19680		10188	
22	ben	DRSC20310		2277	8316	947	2265
23	ben	DRSC21261		24029		9910	
24	org-1	DRSC18810		37318		8644	
25	mRpL30	DRSC18416		16886		8315	
26	CG10062	DRSC05960		17133		5129	
27	CG10062	DRSC22535		8.36e5	8.18e5	3.86e5	3.70e5
28	CG18747	DRSC15384		15416		4416	
29	vap	DRSC20275		2439	7297	747	1909
30	CG6340	DRSC19987		40204		8962	
31	Or85e	DRSC16768		12876		4746	
32	Zif	DRSC12514		3843		1724	
33	CG30177	DRSC22680		5.23e5	6.04e5	1.97e5	2.15e5
34	CG34429	DRSC10120		6268		2952	
35	CG9592	DRSC11078		5666		2939	
36	CG3679	DRSC19346		1867	5794	1009	2930
37	Phs	DRSC10827		5728		2690	
38	Syn	DRSC16876		19209		4006	
39	CecB	DRSC16605		10803		4293	
40	CG15563	DRSC15101		7441		3174	
41	Sap130	DRSC09680		4764		2129	
42	STUB1	DRSC03282		2685	6592	1140	2028

Continued (5 carried over from the part before).
no.	Target gene	amplicon	reporter change call, replicate 1	firefly reporter light, replicate 1	firefly reporter light, replicate 2	Renilla control light, replicate 1	Renilla control light, replicate 2
38	Syn	DRSC16876		19209		4006	
39	CecB	DRSC16605		10803		4293	
40	CG15563	DRSC15101		7441		3174	
41	Sap130	DRSC09680		4764		2129	
42	STUB1	DRSC03282		2685	6592	1140	2028
43	dsd	DRSC13829		6586		2257	
44	dsd	DRSC15850		3478	8673	1397	2912
45	Nup50	DRSC06827		6634		1446	
46	z	DRSC18855	Wg reporter activity raised (active)	8293	13590	362	693
47	CG13876	DRSC08346		5861		2700	
48	CG6959	DRSC16151		14364		3620	
49	Ccp84Ad	DRSC12589	Wg reporter activity raised (active)	31669		3569	
50	Ccp84Ad	DRSC22854		4.01e5	3.25e5	1.38e5	1.73e5
51	CG15414	DRSC00429		4627	9078	1554	2921
52	CG15414	DRSC22353		6.77e5	6.60e5	3.04e5	3.17e5
53	Hira	DRSC18672		24972		14026	
54	CG12009	DRSC08217		8084		3461	
55	alc	DRSC07062		3600	9619	970	4700
56	alc	DRSC21464		7.33e5	7.50e5	4.45e5	3.44e5
57	KFase	DRSC03258		2616	4305	816	772
58	GIIIspla2	DRSC18094		1920	6988	519	2247
59	raw	DRSC03599		2609	5356	725	2583
60	raw	DRSC03600		1563	4048	544	1750
61	CG17687	DRSC10279		5255		2209	
62	Sbp2	DRSC10766		4861		2082	
63	CG11151	DRSC19387		24241		16384	
64	l(2)efl	DRSC04698		11880		3284	
65	CG15865	DRSC19733		18843		7178	
66	Atf6	DRSC04743		24663	7.19e5	13161	3.29e5
67	Atf6	DRSC04889		2489	6809	492	2973
68	CG43996 + CG43997	DRSC19456		13488		8474	
69	CG43996 + CG43997	DRSC19457		20712		7709	
70	Sdr	DRSC15517		6141		2379	
71	RhoGEF4	DRSC11011		3994		1952	
72	Rim	DRSC16224		18209		4246	
73	Rim	DRSC16225		9554		704	
74	Rim	DRSC16226		2697	6308	1399	1851
75	Rim	DRSC16227		23203		5024	
76	Rim	DRSC22406		5.07e5	5.33e5	1.43e5	1.25e5
